Publication doi:10.1101/832873
Results are given in words; binding and its absence hold for the method and conditions named. In cells and extracts the contact can be indirect. Here binding means that the protein was enriched with, or labelled near, the bait; the list need not be complete. Where a sequence is shown, tags or fusion partners need not be part of it.

Tests used:
[1] = molecular target: T1, Dppa4-GFP (Developmental Pluripotency Associated 4, GFP-tagged) (UniProt Q8CCG4); assay: affinity purification with mass spectrometry
T1 sequence: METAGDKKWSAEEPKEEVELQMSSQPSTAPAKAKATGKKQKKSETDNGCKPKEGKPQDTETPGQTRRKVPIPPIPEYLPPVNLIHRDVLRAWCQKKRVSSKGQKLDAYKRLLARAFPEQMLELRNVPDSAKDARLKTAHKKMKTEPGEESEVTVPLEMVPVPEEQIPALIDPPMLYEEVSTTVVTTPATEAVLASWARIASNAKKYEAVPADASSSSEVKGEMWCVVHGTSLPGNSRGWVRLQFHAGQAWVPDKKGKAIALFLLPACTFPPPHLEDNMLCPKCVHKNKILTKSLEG

[2] = molecular target: T2, Dppa2-GFP (Developmental Pluripotency Associated 2, GFP-tagged) (UniProt Q9CWH0); assay: affinity purification with mass spectrometry
T2 sequence: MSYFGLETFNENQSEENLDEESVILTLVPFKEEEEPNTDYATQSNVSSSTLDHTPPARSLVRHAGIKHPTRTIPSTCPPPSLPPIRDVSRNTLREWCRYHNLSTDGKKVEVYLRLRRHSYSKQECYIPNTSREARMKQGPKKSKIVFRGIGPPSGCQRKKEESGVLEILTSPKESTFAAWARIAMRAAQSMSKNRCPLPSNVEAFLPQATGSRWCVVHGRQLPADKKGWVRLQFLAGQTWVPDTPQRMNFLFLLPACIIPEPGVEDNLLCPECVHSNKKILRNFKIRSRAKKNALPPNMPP

With Zscan4 (mouse (endogenous in E14 ESCs)) the binding [1] was “binds” and the binding [2] was “binds”.

B1: Dppa4 (Developmental Pluripotency Associated 4), endogenous (protein, UniProt Q8CCG4 1-296)
chain: T1 sequence
B1 was tested, and the binding [2] was “binds”.

B2: Dppa2 (Developmental Pluripotency Associated 2), endogenous (protein, UniProt Q9CWH0 1-301)
chain: T2 sequence
For B2, the binding [1] was “binds”.
